No constants are given. Whether binding was seen depends on the method and setting. For some assays here: In cells and extracts the contact can be indirect. Some results given as binding are weak or reduced against the parent protein; the word gives no strength. Each block holds one binder with its values, some of them ahead of it.
Legend:
[1] = biological target: p65 subunit of NF-κB (human) (UniProt Q04206); assay: confocal microscopy (figure legend)
integrin β5 (human) [2] = biological target: integrin β5 (human) (UniProt P18084); assay: co-immunoprecipitation (figure legend)
integrin β4 (human) [3] = biological target: integrin β4 (human) (UniProt P16144); assay: co-immunoprecipitation from MDA231/cl.16 lysate
integrin β1 (human) [4] = biological target: integrin β1 (human) (UniProt P05556); assay: co-immunoprecipitation (discussion of Example 1)
integrin β4 (human) [5] = biological target: integrin β4 (human) (UniProt P16144); assay: co-immunoprecipitation (discussion of Example 1)
integrin β5 (human) [6] = biological target: integrin β5 (human) (UniProt P18084); assay: co-immunoprecipitation (discussion of Example 1)
[7] = biological target: p65 subunit of NF-κB (human) (UniProt Q04206); assay: confocal microscopy of Panc28 cells (discussion of Example 4)
integrin β1 (human) [8] = biological target: integrin β1 (human) (UniProt P05556); assay: co-immunoprecipitation and confocal microscopy (figure legend)
[9] = biological target: p65 subunit of NF-κB (human) (UniProt Q04206); assay: co-immunoprecipitation with anti-TG2 antibody; confocal colocalization of TG2 with p65
integrin β1 (human) [10] = biological target: integrin β1 (human) (UniProt P05556); assay: co-immunoprecipitation with anti-β1 integrin antibody from MDA-MB231 lysates, anti-TG2 immunoblot; confocal colocalization
integrin β5 (human) [11] = biological target: integrin β5 (human) (UniProt P18084); assay: co-immunoprecipitation with anti-β5 integrin antibody from MDA-MB231 lysates, anti-TG2 immunoblot; confocal colocalization
[12] = biological target: focal adhesion kinase (FAK) (human) (UniProt Q05397); assay: adenoviral expression in BxPC-3 cells; Western blot and confocal microscopy
[13] = biological target: p65 subunit of NF-κB (human), Q04206; assay: co-immunoprecipitation from Panc28 cytosolic extracts (figure legend); details: remark: other sources report otherwise
[14] = biological target: p65 subunit of NF-κB (human), Q04206; assay: co-immunoprecipitation with anti-IκBα antibody from Panc28 cytoplasmic extracts; details: remark: other sources report otherwise

Amino acid sequences for entries named in this document (tags omitted). Residues count along the entry.
UniProt Q04206: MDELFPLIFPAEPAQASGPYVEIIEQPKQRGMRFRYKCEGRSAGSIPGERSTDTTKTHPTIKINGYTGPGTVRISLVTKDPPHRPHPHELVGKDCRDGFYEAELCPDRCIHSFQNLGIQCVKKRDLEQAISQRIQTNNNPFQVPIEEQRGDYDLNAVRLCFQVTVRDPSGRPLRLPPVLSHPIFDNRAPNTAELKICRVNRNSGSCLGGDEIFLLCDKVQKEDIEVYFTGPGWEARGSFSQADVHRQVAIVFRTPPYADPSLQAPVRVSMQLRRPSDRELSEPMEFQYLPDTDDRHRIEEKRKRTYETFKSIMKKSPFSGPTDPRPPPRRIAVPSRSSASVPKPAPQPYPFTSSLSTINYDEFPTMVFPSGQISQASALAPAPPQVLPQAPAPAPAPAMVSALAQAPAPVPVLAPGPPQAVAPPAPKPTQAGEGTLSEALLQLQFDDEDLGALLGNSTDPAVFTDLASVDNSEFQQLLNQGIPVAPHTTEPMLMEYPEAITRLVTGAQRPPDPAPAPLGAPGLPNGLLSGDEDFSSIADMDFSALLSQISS
UniProt P18084, residues 24-799: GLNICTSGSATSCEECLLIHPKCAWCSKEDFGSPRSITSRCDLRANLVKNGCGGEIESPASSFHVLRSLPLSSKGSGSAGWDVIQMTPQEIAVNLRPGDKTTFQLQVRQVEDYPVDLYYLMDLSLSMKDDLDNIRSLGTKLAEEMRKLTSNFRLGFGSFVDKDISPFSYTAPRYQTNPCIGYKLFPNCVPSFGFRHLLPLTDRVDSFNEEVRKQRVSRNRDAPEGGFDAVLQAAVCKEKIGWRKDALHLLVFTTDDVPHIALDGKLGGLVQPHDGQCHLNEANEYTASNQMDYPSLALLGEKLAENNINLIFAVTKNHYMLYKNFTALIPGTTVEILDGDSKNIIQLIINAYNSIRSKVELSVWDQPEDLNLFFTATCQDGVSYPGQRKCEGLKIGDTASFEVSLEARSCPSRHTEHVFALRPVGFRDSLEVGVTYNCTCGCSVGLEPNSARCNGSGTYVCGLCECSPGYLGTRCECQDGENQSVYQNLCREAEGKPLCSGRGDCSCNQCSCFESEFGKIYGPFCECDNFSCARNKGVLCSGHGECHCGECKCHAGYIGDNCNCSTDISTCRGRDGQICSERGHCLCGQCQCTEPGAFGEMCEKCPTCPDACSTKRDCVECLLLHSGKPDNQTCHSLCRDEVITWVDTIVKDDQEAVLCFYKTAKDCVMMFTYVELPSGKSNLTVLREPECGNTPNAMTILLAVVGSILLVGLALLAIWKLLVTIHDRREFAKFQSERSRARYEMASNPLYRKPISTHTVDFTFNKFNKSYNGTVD
UniProt P16144, residues 28-1822: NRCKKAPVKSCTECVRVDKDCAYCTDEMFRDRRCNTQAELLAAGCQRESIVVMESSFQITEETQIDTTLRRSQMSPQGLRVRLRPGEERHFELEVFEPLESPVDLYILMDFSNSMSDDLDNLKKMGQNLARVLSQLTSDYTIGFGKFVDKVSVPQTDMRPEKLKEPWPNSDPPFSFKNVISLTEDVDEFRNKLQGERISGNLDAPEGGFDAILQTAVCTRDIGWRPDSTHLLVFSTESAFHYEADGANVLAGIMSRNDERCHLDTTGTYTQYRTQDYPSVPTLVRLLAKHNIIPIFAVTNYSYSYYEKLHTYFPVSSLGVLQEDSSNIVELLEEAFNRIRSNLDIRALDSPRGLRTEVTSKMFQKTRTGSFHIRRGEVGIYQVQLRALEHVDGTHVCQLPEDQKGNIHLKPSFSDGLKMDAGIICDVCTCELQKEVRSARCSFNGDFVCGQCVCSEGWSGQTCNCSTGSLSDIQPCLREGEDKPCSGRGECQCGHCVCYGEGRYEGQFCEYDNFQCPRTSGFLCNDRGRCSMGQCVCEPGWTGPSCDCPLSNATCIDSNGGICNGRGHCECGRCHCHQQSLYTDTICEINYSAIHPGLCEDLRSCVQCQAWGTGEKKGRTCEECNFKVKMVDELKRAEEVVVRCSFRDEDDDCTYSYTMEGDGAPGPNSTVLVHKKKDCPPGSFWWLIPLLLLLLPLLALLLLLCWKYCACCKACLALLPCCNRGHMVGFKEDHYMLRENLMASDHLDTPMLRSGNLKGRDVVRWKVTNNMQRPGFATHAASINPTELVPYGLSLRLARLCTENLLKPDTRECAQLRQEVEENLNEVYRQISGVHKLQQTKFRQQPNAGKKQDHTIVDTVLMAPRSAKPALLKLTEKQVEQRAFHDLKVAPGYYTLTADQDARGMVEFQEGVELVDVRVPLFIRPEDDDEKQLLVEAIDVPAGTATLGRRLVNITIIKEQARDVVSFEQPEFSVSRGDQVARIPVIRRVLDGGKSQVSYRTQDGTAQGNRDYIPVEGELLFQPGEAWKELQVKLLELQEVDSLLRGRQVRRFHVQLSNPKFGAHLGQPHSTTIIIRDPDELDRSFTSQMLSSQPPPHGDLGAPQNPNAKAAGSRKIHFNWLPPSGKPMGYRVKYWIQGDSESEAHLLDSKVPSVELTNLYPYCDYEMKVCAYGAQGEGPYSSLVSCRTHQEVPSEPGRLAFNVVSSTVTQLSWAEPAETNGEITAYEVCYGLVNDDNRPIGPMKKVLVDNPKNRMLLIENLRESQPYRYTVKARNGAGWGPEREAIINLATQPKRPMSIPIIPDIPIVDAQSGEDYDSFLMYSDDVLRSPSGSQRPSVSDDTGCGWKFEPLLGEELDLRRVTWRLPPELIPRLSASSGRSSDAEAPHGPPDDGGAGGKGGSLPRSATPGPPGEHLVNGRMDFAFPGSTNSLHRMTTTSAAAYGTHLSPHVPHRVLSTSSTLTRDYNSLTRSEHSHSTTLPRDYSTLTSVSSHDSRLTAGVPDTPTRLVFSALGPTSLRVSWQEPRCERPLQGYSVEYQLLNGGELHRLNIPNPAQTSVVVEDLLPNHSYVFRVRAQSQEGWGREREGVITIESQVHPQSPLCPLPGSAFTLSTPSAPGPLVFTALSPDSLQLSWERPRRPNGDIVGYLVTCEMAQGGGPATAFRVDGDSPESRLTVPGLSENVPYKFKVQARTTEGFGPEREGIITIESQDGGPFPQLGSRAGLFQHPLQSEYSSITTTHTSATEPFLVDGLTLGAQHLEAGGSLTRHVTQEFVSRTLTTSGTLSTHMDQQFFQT
UniProt P05556: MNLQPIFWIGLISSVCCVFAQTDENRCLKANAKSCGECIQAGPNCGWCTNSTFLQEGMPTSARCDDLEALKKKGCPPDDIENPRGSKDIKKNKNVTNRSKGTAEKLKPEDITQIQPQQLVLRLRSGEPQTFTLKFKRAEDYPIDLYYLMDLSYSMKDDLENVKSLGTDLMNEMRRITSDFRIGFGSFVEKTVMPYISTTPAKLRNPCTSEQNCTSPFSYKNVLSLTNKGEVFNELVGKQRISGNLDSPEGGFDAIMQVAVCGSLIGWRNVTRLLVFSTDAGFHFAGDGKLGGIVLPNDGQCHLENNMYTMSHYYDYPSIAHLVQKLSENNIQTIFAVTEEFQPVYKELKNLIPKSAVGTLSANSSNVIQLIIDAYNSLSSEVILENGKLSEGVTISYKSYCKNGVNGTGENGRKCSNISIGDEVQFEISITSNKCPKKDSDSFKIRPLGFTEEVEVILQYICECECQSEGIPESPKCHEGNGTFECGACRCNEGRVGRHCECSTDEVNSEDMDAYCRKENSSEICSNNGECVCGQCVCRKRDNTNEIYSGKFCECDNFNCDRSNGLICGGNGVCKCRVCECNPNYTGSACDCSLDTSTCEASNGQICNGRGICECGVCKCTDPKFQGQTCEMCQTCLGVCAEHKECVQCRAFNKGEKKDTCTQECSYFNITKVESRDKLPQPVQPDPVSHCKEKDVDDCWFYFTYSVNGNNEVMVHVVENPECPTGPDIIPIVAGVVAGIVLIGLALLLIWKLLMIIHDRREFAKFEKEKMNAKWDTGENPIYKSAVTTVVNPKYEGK
UniProt Q05397, residues 2-1052: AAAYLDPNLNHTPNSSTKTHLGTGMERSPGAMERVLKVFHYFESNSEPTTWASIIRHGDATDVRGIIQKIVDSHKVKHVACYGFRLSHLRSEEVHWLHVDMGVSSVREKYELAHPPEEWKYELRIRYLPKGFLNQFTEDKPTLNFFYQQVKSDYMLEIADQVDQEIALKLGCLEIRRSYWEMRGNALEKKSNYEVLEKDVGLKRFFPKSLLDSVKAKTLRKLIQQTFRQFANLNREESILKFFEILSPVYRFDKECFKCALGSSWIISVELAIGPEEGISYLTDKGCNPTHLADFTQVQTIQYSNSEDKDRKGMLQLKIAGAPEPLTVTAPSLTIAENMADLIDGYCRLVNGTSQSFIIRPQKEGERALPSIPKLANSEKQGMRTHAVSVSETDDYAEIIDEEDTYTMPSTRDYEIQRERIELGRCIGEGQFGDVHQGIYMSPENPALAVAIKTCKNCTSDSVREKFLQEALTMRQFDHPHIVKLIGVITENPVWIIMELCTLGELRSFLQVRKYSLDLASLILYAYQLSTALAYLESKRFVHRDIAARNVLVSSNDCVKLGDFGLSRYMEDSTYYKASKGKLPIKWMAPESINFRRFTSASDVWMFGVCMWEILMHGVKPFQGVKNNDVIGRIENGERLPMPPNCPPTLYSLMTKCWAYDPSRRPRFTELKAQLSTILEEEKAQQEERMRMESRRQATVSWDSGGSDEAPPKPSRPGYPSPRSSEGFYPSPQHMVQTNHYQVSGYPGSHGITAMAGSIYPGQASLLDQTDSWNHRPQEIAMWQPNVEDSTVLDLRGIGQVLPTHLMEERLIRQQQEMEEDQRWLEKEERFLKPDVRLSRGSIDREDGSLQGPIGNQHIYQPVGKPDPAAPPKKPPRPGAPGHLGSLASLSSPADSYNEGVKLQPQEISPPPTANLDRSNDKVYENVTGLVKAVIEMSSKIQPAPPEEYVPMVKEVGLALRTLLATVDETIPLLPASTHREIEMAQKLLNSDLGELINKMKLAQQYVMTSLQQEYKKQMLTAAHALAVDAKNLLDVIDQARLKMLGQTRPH

binding [1]: binds
binding (integrin β5 (human) [2]): binds
binding (integrin β4 (human) [3]): binds
binding (integrin β1 (human) [4]): binds
binding (integrin β4 (human) [5]): binds
binding (integrin β5 (human) [6]): binds
binding [7]: binds
binding (integrin β1 (human) [8]): binds
binding [9]: binds
binding (integrin β1 (human) [10]): binds
binding (integrin β5 (human) [11]): binds
B1: Tissue transglutaminase (TG2, EC 2.3.2.13) (enzyme, human, UniProt P21980 2-687, looked up)
chain: AEELVLERCDLELETNGRDHHTADLCREKLVVRRGQPFWLTLHFEGRNYEASVDSLTFSVVTGPAPSQEAGTKARFPLRDAVEEGDWTATVVDQQDCTLSLQLTTPANAPIGLYRLSLEASTGYQGSSFVLGHFILLFNAWCPADAVYLDSEEERQEYVLTQQGFIYQGSAKFIKNIPWNFGQFEDGILDICLILLDVNPKFLKNAGRDCSRRSSPVYVGRVVSGMVNCNDDQGVLLGRWDNNYGDGVSPMSWIGSVDILRRWKNHGCQRVKYGQCWVFAAVACTVLRCLGIPTRVVTNYNSAHDQNSNLLIEYFRNEFGEIQGDKSEMIWNFHCWVESWMTRPDLQPGYEGWQALDPTPQEKSEGTYCCGPVPVRAIKEGDLSTKYDAPFVFAEVNADVVDWIQQDDGSVHKSINRSLIVGLKISTKSVGRDEREDITHTYKYPEGSSEEREAFTRANHLNKLAEKEETGMAMRIRVGQSMNMGSDFDVFAHITNNTAEEYVCRLLLCARTVSYNGILGPECGTKYLLNLNLEPFSEKSVPLCILYEKYRDCLTESNLIKVRALLVEPVINSYLLAERDLYLENPEIKIRILGEPKQKRKLVAEVSLQNPLPVALEGCTFTVEGAGLTEEQKTVEIPDPVEAGEEVKVRMDLLPLHMGLHKLVVNFESDKLKAVKGFRNVIIGPA

binding [12]: binds
B2: C277S mutant TG2 (TG2m) (enzyme, UniProt P21980 2-687, looked up)
chain: AEELVLERCDLELETNGRDHHTADLCREKLVVRRGQPFWLTLHFEGRNYEASVDSLTFSVVTGPAPSQEAGTKARFPLRDAVEEGDWTATVVDQQDCTLSLQLTTPANAPIGLYRLSLEASTGYQGSSFVLGHFILLFNAWCPADAVYLDSEEERQEYVLTQQGFIYQGSAKFIKNIPWNFGQFEDGILDICLILLDVNPKFLKNAGRDCSRRSSPVYVGRVVSGMVNCNDDQGVLLGRWDNNYGDGVSPMSWIGSVDILRRWKNHGCQRVKYGQSWVFAAVACTVLRCLGIPTRVVTNYNSAHDQNSNLLIEYFRNEFGEIQGDKSEMIWNFHCWVESWMTRPDLQPGYEGWQALDPTPQEKSEGTYCCGPVPVRAIKEGDLSTKYDAPFVFAEVNADVVDWIQQDDGSVHKSINRSLIVGLKISTKSVGRDEREDITHTYKYPEGSSEEREAFTRANHLNKLAEKEETGMAMRIRVGQSMNMGSDFDVFAHITNNTAEEYVCRLLLCARTVSYNGILGPECGTKYLLNLNLEPFSEKSVPLCILYEKYRDCLTESNLIKVRALLVEPVINSYLLAERDLYLENPEIKIRILGEPKQKRKLVAEVSLQNPLPVALEGCTFTVEGAGLTEEQKTVEIPDPVEAGEEVKVRMDLLPLHMGLHKLVVNFESDKLKAVKGFRNVIIGPA

binding [13]: binds
binding [14]: binds
B3: IκBα, P25963 1-317 (protein, human, UniProt P25963 1-317, looked up)
chain: MFQAAERPQEWAMEGPRDGLKKERLLDDRHDSGLDSMKDEEYEQMVKELQEIRLEPQEVPRGSEPWKQQLTEDGDSFLHLAIIHEEKALTMEVIRQVKGDLAFLNFQNNLQQTPLHLAVITNQPEIAEALLGAGCDPELRDFRGNTPLHLACEQGCLASVGVLTQSCTTPHLHSILKATNYNGHTCLHLASIHGYLGIVELLVSLGADVNAQEPCNGRTALHLAVDLQNPDLVSLLLKCGADVNRVTYQGYSPYQLTWGRPSTRIQQQLGQLTLENLQMLPESEDEESYDTESEFTEFTEDELPYDDCVFGGQRLTL

From patent US20080279844A1
